# Measured values as given in PubChem BioAssay (EPA / NIEHS).
# By UniProt entry, the sequences of proteins in these tests, tags left out. Where a name states a change or a piece, a line headed by the entry shows the natural chain unless it says otherwise.
# UniProt P11473: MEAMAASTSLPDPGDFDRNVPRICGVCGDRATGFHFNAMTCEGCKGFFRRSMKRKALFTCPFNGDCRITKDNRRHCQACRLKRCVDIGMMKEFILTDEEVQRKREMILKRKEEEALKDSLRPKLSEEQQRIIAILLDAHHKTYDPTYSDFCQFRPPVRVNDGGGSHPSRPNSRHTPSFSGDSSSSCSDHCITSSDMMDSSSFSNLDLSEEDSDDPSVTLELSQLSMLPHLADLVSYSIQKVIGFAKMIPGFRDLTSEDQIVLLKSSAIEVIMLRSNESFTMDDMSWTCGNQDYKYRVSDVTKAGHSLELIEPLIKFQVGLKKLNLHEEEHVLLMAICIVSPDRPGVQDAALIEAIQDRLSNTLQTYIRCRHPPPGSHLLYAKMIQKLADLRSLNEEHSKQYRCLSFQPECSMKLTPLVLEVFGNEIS
# “And” between values parts separate entries of the source, which are not always exact repeats. Identical values can stand only once. The shares of active, inactive and inconclusive entries below differ from those in the screen. A potency beside an inconclusive call is a rough fit, not a confirmed value. The source made the active and inactive calls. Rule for the calls: active = hit-call score of the fitted dose curve at least 0.9, where 1 is the maximum; inconclusive = response in the unintended direction; inactive = score below 0.9.
# Biological target: human Vitamin D Receptor (VDR), VDR (gene 7421) (UniProt P11473)
# Assay: ATG_VDR_TRANS: Attagene TRANS-FACTORIAL HepG2 Assay for human Vitamin D Receptor (VDR) (AID 2283022)
# Description: ATG_TRANS is a cell-based, multiplexed-readout assay that uses HepG2, a human liver cell line, with measurements taken at 24 hours after chemical dosing in a 24-well plate.ATG_VDR_TRANS is one of 30 assay component(s) measured or calculated from the ATG_TRANS assay. It is designed to make measurements of mRNA induction, a form of inducible reporter, as detected with fluorescence intensity signals by Reverse transcription polymerase chain reaction (RT-PCR) and Capillary electrophoresis technology.Data from the assay component ATG_VDR_TRANS was analyzed into 1 assay endpoint. This assay endpoint, ATG_VDR_TRANS, was analyzed in the positive analysis fitting direction relative to DMSO as the negative control and baseline of activity. Using a type of inducible reporter, measures of mRNA for gain-of-signal activity can be used to understand the reporter gene at the transcription factor-level as they relate to the gene VDR. Furthermore, this assay endpoint can be referred to as a primary readout, because this assay has produced multiple assay endpoints where this one serves a reporter gene function. To generalize the intended target to other relatable targets, this assay endpoint is annotated to the nuclear receptor intended target family, where the subfamily is non-steroidal.
# Human liver HepG2 cells are transiently transfected with multiple reporter transcription units (MRTUs) in 6-well plates using FuGene 6 reagent (Roche; 3 ml FuGene/1 mg DNA). The MRTU constructs are regulated by a cis-regulating element (promoter). […] A major difference between the CIS and TRANS system is that in CIS activities of endogenous TFs are measured, whereas the TRANS assay evaluates changes in activities of exogenous, chimeric NR-Gal4 proteins. […] At the end of 24 hour incubation, total RNA was isolated using TriZol reagent (Invitrogen). The isolated RNA is then reverse-transcribed using oligo(dT) primer and Mo-MLV reverse transcriptase (Invitrogen) with DNAse I (Ambion) treatment for 30 min. The one-tenth of the produced cDNA was amplified by PCR using Taq DNA polymerase (Invitrogen) and two reporter sequence-specific primers. The PCR products were fluorescently labeled by primer extension with 6-arboxyfluorescein (6-FAM) 5'-labeled reporter sequence-specific primer (2 min at 95 C, 20 s at 68 C and 10 min at 72 C) and these products were digested with 5U of HpaI (New England Biolabs) for 2h at 37 C. The fragments were purified using Qiaquick PCR columns (Qiagen), analyzed on an ABI 3130xL genetic analyzer (Applied Biosystems) with peak positions identified by using a set of X-rhodamine (ROX)-labeled MapMarker1000 molecular weight standards (BioVentures). The raw capillary electrophoresis data was processed using Attagraph software (Attagene).
Structure (SMILES),AC50,outcome
O=C1CCCCCCCCCCCC(=O)OCCO1,inconclusive: 100 µM,–
FC(F)(F)C(F)(F)C(F)(F)C(F)(F)C(F)(F)C(F)(F)C(F)(F)C(F)(F)F,inconclusive: 150 µM,–
OCc1ccccc1,inconclusive: 48.7 nM and inconclusive: 116 µM,–
FC(F)(F)C(F)(F)C(F)(F)C(F)(F)C(F)(F)C(F)(F)I,inconclusive: 150 µM,–
CC(C)(CO)[N+](=O)[O-],inconclusive: 27.3 µM,–
CCCCCCc1ccc(O)cc1O,–,inactive
CCCCNC(=S)NCCCC,inconclusive: 100 µM,–
CC(C)=CCCC(C)O (stereo not given),–,inactive
C=C(C)C(=O)OCC(F)(F)C(F)(F)C(F)(F)C(F)F,inconclusive: 100 µM,–
Nc1nnc(-c2ccc([N+](=O)[O-])o2)o1,inconclusive: 100 µM,–
CC1(C)CCC(C)(C)c2cc(C(=O)Nc3ccc(C(=O)O)cc3)ccc21,–,inactive
C=CC(C)(C)O,inconclusive: 100 µM,–
C=CC(F)(F)C(F)(F)C(F)(F)C(F)(F)C(F)(F)C(F)(F)C(F)(F)C(F)(F)F,inconclusive: 150 µM and inconclusive: 50 µM,–
CCCCCCCCCCCC(=O)NCCCN(C)C,inconclusive: 11.1 µM,–

Structure (SMILES),AC50,outcome
CCOC(=O)C=Cc1ccccc1,–,inactive
CCOC(=O)c1ccc(C2CCC(NC[C@H](O)COc3ccc(O)c(NS(C)(=O)=O)c3)CC2)cc1 (stereo not given in full),inconclusive: 33 µM,–
CC(=O)O[C@]1(C(C)=O)CC[C@H]2[C@@H]3C[C@H](C)C4=CC(=O)CC[C@]4(C)[C@H]3CC[C@@]21C,inconclusive: 85.1 µM,–
O=C1NC(=O)C2CC=CCC12 (stereo not given),–,inactive
CC(C)(c1ccc(Oc2ccc(N)cc2)cc1)c1ccc(Oc2ccc(N)cc2)cc1,inconclusive: 3.71 µM,–
C[Si](C)(C)O[Si](O)(O)O,inconclusive: 100 µM,–
CCCCCCCCCCCCCCCC(=O)OC/C=C(C)/C=C/C=C(C)/C=C/C1=C(C)CCCC1(C)C,inconclusive: 19.8 µM,–
CCCC[C@H]1CN(CC2CCOCC2)C(=O)OC12CCN(C1(C)CCN(C(=O)c3c(C)ncnc3C)CC1)CC2,inconclusive: 21.7 µM,–
O=C(O)C(F)(F)C(F)(F)C(F)F,–,inactive
CC1(C)CC(N=C=O)CC(C)(CN=C=O)C1 (stereo not given),inconclusive: 0.0697 µM,–
O=[N+]([O-])c1ccc(C=Cc2ccc([N+](=O)[O-])cc2S(=O)(=O)O)c(S(=O)(=O)O)c1,inconclusive: 170 µM,–
Cc1ccc(S(=O)(=O)NC(=O)NN2CCCCCC2)cc1,–,inactive
CCCCC(CC)CO (stereo not given),–,inactive
C=CC(=C)CCCC(C)(C)OC(C)=O,inconclusive: 100 µM,–
O=C(O)CCC(=O)O,–,inactive
